Data source: PubChem BioAssay AID1224830 (NIAID, 2016)

Screen: 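Regulators of TLR4 signalling towards TNF-alpha in macrophage-like cells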 (primary screen)
System: human THP-1 monocytic leukaemia cells, TNF dual-luciferase reporter clone, PMA-differentiated to macrophage-like cells
Reagents: siRNA pool against human genes, 50 nM
Duration: LPS for 4 h, given about 3 days after siRNA transfection
Challenge: bacterial LPS (TLR4 ligand), 10 ng/ml
Read-out: 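Ratio of firefly to renilla light, scaled to the plate median and expressed as a robust z-score per replicate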
Scale: TNF reporter robust z-score: higher = stronger TNF reporter response to LPS
Rule for the call: 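a well is active when its z-score exceeds 2.8 or falls below -1.5; control wells carry no call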
Here is a random part of about 18,000 reagents tested. About 2,900 of them (16%) count as active. 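Calls are made per well; low scores hint the gene aids the LPS response, high scores that it dampens it.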 A number with no mark means an inactive call. Repeated entries: four replicate wells of each siRNA pool.

no.	gene	TNF reporter robust z-score
1	ITGB8	2
2	ITGB8	0.81
3	ITGB8	0.17
4	ITGB8	0.06
5	ICAM1	-1.04
6	ICAM1	-1.35
7	ICAM1	-1.46
8	ICAM1	-1.47
9	OVGP1	0.37
10	OVGP1	0.31
11	OVGP1	-0.07
12	OVGP1	-0.31
13	ATP2A2	-0.48
14	ATP2A2	-0.29
15	ATP2A2	-0.81
16	ATP2A2	-0.15
17	BRD1	-0.26
18	BRD1	-0.76
19	BRD1	-0.11
20	BRD1	-0.45
21	YIPF6	-0.42
22	YIPF6	-0.33
23	YIPF6	-1.13
24	YIPF6	-0.31
25	FAM13C	0.26
26	FAM13C	0.92
27	FAM13C	0.7
28	FAM13C	0.56
29	DOCK8	-1.34
30	DOCK8	-0.7
31	DOCK8	-0.5
32	DOCK8	-0.67
33	SIRPD	3.26 (active)
34	SIRPD	4.82 (active)
35	SIRPD	4.97 (active)
36	SIRPD	5.74 (active)
37	CTNNA2	0.36
38	CTNNA2	2.64
39	CTNNA2	0.94
40	CTNNA2	1.69
41	TEDC1	0.66
42	TEDC1	2.29
43	TEDC1	-0.11
44	TEDC1	1.17
45	CDH23	0.71
46	CDH23	-0.32
47	CDH23	1.57
48	CDH23	1.93
49	LEP	-1.08
50	LEP	1.97
51	LEP	0.45
52	LEP	0.89
53	B3GAT2	-0.47
54	B3GAT2	0.1
55	B3GAT2	-0.82
56	B3GAT2	-0.14
57	ZSWIM9	0
58	ZSWIM9	0.73
59	ZSWIM9	0.53
60	ZSWIM9	2.24
61	SLC22A12	-0.75
62	SLC22A12	3.59 (active)
63	SLC22A12	0.84
64	SLC22A12	1.24
65	FUNDC2	-0.33
66	FUNDC2	0.66
67	FUNDC2	0.22
68	FUNDC2	-0.36
69	EPS8	-1.64 (active)
70	EPS8	-1.23
71	EPS8	-1.33
72	EPS8	-1.24
73	MTG1	0.19
74	MTG1	1.13
75	MTG1	-0.12
76	MTG1	1.32
77	RSPO4	-1.18
78	RSPO4	-0.41
79	RSPO4	-0.76
80	RSPO4	-0.04
81	CHKB	-1.33
82	CHKB	-0.04
83	CHKB	0.03
84	CHKB	0.61
85	USP36	-0.51
86	USP36	-0.06
87	USP36	-0.47
88	USP36	-0.3
89	PLIN3	-1.33
90	PLIN3	-1.41
91	PLIN3	-0.97
92	PLIN3	-1.56 (active)
93	CNTN3	-0.7
94	CNTN3	0.27
95	CNTN3	-0.84
96	CNTN3	-0.67
97	IFI30	-0.2
98	IFI30	-0.8
99	IFI30	-0.56
100	IFI30	-0.91
101	PPP1R15A	-0.15
102	PPP1R15A	0.13
103	PPP1R15A	-0.02
104	OR13C5	9.75 (active)
105	OR13C5	1.88
106	OR13C5	1.3
107	OR13C5	0.82
108	NR1H4	0.76
109	NR1H4	-0.03
110	NR1H4	0.46
111	NR1H4	1.02
112	MARK4	1.75
113	MARK4	0.75
114	MARK4	-0.28
115	MARK4	-0.04
116	KRTAP23-1	-0.18
117	KRTAP23-1	-0.49
118	KRTAP23-1	-1.53 (active)
119	KRTAP23-1	1.24
120	MED30	-0.01
121	MED30	-0.19
122	MED30	-0.82
123	MED30	0.08
124	YY1	-0.11
125	YY1	0.62
126	YY1	0.61
127	YY1	1.16
128	GPR35	1.34
129	GPR35	0.88
130	GPR35	0.59
131	GPR35	0.35
132	ZNF497	-0.59
133	ZNF497	-0.36
134	ZNF497	-1.23
135	ZNF497	-0.9
136	CIMIP6	2.11
137	CIMIP6	1.92
138	CIMIP6	0.99
139	CIMIP6	2.18
140	SGK2	-1.07
141	SGK2	0.01
142	SGK2	-0.59
143	SGK2	-0.22

No new results follow: an excerpt of the list.
no.	gene	TNF reporter robust z-score
30	DOCK8	-0.7
31	DOCK8	-0.5
32	DOCK8	-0.67
33	SIRPD	3.26 (active)
34	SIRPD	4.82 (active)
35	SIRPD	4.97 (active)
36	SIRPD	5.74 (active)
37	CTNNA2	0.36
38	CTNNA2	2.64
39	CTNNA2	0.94
40	CTNNA2	1.69
41	TEDC1	0.66
42	TEDC1	2.29
43	TEDC1	-0.11
44	TEDC1	1.17
45	CDH23	0.71
46	CDH23	-0.32
